Measurements as given in the supplement of paper PMC3334620.
Over roughly 33,000 sequences, “E-score (-0.5 to 0.5)” has its median near -0.0014; the highest 2% begin near 0.25. This is one part of the list.

Molecular target: T1, Cad1 (UniProt P24813)
T1 sequence: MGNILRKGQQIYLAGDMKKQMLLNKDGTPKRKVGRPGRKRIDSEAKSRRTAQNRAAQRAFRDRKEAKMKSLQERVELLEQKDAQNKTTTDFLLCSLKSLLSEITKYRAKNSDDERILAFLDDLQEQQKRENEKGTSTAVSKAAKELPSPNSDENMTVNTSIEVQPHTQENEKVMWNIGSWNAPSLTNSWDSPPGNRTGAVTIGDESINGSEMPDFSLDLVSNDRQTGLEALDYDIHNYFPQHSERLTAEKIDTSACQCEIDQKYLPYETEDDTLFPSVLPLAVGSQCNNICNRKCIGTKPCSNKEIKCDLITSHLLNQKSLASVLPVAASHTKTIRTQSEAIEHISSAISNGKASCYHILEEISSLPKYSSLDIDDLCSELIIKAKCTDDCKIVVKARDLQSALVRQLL
Assay: PBM E-score (8-mer binding enrichment) (E-score (-0.5 to 0.5)); higher = stronger / more preferred TF binding
Settings: protein concentration: 100 nM; construct: GST-full length
Protocol: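 Universal 'all 10-mer' protein binding microarrays (Agilent AMADID 015681) probed with GST-tagged S. cerevisiae TFs (full-length or DBD) made by in vitro transcription/translation (PURExpress), about 100-200 nM. Bound TF was detected with fluorescent anti-GST. Each ungapped 8-mer (which stands for itself and its reverse complement) is scored by the PBM enrichment score (E-score), a modified Wilcoxon-Mann-Whitney statistic from -0.5 to +0.5, computed with the Universal PBM Analysis Suite. Scale: above 0.35 generally sequence-specific binding.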

| Sequence | PBM E-score |
| --- | --- |
| TAGACGGA | 0.0492 |
| AAGCTGCT | 0.181 |
| CGTAGCAA | 0.0723 |
| CGCAGTCC | -0.0225 |
| GAGGCTTA | -0.0175 |
| CTTCCAAC | 0.0787 |
| CGGTAGGC | -0.154 |
| GTGGCTTA | 0.00103 |
| TTTTAAAA | 0.128 |
| AGGGGAGA | -0.347 |
| AGTGTACA | 0.213 |
| GCATGAAC | 0.105 |
| GCGGAATA | 0.0367 |
| CGGCGTTC | -0.0872 |
| CCTGGTAA | 0.0575 |
| ATTGATAA | 0.2 |
| CCTAGTAG | -0.255 |
| CCCGACGA | -0.0019 |
| CACCATGC | -0.0454 |
| GAGTTTTA | 0.0417 |
| AGCACAAA | 0.181 |
| CAAGACGG | 0.0372 |

| Sequence | PBM E-score |
| --- | --- |
| ACCGAATA | 0.0629 |
| GTCCCGGA | 0.0645 |
| ACCATCGT | -0.074 |
| CAGATGGG | -0.197 |
| AACCAGCC | 0.0317 |
| AGATTCAC | -0.129 |
| ATCCAAAC | 0.0554 |
| CGGCGCGC | 0.258 |
| AGTTCCAC | 0.0445 |
| CATCAGCG | -0.0225 |
| CAAAAAAA | 0.147 |
| TATATGGA | -0.0332 |
| TACGCTAA | 0.176 |
| ACGTGTTC | -0.058 |
| CAATAACG | 0.204 |
| AACCCCTC | -0.319 |
| CCGTAGAC | -0.0558 |
| ACCTTCCT | -0.271 |
| CAGTTATA | -0.0494 |
| TAGTACCA | -0.0738 |
| CGCTCGGA | 0.248 |
| CCAAGTGG | -0.004 |

Random excerpt: 6 entries already listed

| Sequence | PBM E-score |
| --- | --- |
| GAGTTTTA | 0.0417 |
| GTCCCGGA | 0.0645 |
| GTGGCTTA | 0.00103 |
| CCCGACGA | -0.0019 |
| CCTGGTAA | 0.0575 |
| ACCTTCCT | -0.271 |

Next part:

| Sequence | PBM E-score |
| --- | --- |
| GTATTGCA | -0.0639 |
| TATATTCA | 0.0925 |
| TCTGTGAA | 0.148 |
| CCCGATAA | -0.00516 |
| TGAGAGAA | 0.0668 |
| AGACGGTC | -0.199 |
| CACGTACG | -0.161 |
| CCCTCTAA | -0.132 |
| CAACTCGC | 0.133 |
| GTCACAGA | 0.111 |
| ATAGCGAA | 0.189 |
| CTTGTCCA | -0.0101 |
| CAACAATC | 0.164 |
| CGTCCGTA | -0.0771 |
| ACCTAGAT | -0.138 |
| CGAGTGGA | -0.0976 |
| CTGTTTTA | 0.0976 |
| CAACATGC | 0.0928 |
| AAAAGGTC | -0.0803 |
| CCAATACC | -0.107 |
| GCACCGGA | 0.044 |
| TAGGCCGA | -0.0728 |

| Sequence | PBM E-score |
| --- | --- |
| CTTATTTA | -0.00667 |
| AGACTAGA | -0.275 |
| TGTTGTAA | 0.134 |
| TCACAGGA | -0.0436 |
| CCATCTTC | 0.0894 |
| TACATATA | 0.252 |
| GCGGAACC | 0.17 |
| ACGCTACA | 0.0164 |
| GGTCCGAA | 0.143 |
| ACACCAAC | -0.0461 |
| AATCCTTC | -0.16 |
| CACACCAC | 0.191 |
| TACGTTCA | 0.111 |
| ATGATGCG | 0.158 |
| CCGCGCCG | 0.174 |
| CCCGAGTC | 0.0313 |
| CAACGTGA | -0.105 |
| ATTGATCG | 0.0372 |
| ATGGCAGA | 0.131 |
| GTTTGTTA | 0.202 |
